log2 fold change data for 39 targets are collected here from the supplement of paper PMC10849652.

The chains behind the UniProt entries cited, without tags or fusion partners. Where a name states a change or a piece, a line headed by the entry shows the natural chain unless it says otherwise.
UniProt Q969X1: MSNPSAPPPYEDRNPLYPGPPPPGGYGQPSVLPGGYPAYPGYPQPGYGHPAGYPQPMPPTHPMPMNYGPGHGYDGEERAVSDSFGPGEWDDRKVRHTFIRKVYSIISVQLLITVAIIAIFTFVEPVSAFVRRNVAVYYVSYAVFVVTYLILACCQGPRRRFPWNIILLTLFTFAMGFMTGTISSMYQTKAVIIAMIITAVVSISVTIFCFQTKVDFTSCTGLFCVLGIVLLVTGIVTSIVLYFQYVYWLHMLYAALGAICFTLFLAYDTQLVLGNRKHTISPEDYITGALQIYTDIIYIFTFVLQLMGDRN
UniProt Q5U3C3: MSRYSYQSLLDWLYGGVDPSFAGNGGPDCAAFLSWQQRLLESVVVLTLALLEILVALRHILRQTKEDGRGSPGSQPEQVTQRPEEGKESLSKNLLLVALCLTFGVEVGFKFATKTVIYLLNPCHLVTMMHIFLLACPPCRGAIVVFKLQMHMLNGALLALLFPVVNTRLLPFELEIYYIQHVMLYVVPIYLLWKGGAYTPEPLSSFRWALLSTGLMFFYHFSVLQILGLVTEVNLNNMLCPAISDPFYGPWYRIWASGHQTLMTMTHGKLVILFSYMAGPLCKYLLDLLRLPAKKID
UniProt Q86UE8, whole entry, looked up: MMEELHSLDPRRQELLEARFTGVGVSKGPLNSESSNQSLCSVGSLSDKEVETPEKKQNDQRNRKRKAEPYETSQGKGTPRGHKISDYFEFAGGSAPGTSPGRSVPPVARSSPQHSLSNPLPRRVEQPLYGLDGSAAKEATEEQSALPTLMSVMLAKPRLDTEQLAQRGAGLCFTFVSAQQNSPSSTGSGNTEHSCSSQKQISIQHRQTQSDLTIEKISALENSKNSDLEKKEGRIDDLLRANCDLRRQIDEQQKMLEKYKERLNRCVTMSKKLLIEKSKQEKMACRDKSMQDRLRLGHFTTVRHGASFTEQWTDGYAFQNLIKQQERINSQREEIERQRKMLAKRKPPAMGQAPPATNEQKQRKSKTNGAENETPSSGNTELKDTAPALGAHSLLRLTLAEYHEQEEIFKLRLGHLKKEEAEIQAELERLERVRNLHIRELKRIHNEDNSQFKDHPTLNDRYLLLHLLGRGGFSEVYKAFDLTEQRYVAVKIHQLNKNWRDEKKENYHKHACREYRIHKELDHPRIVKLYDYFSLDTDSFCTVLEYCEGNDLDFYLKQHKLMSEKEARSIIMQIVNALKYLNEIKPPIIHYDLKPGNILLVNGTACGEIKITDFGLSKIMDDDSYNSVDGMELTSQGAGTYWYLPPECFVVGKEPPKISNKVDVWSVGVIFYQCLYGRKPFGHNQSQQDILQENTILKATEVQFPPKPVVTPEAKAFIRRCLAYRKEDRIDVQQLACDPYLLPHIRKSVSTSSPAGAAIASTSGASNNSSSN
UniProt Q6PL24: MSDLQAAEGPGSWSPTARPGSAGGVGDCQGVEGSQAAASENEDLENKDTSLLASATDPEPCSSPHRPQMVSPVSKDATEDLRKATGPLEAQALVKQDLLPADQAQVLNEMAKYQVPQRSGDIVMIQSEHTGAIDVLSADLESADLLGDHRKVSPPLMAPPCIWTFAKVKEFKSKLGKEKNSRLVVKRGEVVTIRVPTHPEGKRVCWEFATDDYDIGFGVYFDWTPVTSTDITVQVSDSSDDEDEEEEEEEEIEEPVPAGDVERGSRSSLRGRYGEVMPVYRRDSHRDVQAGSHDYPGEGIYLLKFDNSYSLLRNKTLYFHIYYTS
UniProt Q0VDI3: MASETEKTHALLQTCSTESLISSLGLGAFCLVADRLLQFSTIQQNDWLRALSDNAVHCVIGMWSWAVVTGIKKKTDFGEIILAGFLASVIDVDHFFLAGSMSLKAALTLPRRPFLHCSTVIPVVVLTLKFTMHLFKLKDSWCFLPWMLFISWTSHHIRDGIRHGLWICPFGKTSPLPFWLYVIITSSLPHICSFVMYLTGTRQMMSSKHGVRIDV
UniProt Q9P2C4: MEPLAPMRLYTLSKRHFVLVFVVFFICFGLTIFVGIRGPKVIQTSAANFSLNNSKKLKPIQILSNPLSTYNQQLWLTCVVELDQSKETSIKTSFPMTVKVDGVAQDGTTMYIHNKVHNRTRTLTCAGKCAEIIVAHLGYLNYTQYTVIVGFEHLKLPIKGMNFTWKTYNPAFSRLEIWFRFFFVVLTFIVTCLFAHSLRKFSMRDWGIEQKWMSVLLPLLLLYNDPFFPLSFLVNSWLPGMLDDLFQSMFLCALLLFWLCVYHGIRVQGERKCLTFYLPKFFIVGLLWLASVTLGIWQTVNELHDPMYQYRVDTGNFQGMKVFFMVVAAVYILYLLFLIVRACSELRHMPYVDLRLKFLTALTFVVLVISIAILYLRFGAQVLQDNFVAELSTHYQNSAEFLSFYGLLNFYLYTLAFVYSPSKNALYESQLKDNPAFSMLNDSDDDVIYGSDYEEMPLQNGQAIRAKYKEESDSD
UniProt Q9NUM4, whole entry, looked up: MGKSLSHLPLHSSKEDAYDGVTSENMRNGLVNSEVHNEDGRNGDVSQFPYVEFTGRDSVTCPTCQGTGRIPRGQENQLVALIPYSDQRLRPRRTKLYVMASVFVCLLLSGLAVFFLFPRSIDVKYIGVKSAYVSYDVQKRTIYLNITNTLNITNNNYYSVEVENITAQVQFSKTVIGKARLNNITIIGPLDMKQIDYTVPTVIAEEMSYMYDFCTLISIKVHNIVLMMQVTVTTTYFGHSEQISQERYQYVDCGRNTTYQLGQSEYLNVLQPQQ
UniProt Q9P0T7: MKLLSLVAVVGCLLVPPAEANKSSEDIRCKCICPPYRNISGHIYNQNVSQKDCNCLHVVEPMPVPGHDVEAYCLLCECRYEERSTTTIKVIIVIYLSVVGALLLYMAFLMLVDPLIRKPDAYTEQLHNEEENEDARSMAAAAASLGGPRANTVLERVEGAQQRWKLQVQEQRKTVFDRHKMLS
UniProt Q9Y3Q3: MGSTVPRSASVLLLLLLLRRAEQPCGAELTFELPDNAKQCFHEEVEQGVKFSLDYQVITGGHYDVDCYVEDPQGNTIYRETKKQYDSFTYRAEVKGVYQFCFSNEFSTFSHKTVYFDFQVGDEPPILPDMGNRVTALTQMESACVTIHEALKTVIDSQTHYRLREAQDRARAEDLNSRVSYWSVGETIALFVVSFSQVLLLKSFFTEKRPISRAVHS
UniProt Q96IK0: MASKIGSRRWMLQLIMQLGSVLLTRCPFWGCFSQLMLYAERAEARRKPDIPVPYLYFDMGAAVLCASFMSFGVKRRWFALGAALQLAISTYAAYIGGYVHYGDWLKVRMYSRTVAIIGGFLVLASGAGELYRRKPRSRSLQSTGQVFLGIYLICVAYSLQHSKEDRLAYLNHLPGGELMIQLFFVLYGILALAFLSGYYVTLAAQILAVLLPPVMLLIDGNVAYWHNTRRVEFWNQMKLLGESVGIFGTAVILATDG
UniProt Q53S58: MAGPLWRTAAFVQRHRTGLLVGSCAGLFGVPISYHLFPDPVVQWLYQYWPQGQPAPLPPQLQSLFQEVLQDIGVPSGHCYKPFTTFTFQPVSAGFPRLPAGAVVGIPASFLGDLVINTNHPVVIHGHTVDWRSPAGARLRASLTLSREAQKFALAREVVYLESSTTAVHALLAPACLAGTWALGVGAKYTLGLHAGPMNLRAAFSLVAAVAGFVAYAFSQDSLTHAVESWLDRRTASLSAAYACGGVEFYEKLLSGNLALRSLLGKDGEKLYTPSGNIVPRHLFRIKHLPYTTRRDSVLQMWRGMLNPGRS
UniProt Q96I45: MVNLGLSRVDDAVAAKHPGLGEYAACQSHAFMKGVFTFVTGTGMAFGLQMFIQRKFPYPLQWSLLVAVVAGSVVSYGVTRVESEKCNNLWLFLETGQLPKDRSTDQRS
UniProt A0PK00: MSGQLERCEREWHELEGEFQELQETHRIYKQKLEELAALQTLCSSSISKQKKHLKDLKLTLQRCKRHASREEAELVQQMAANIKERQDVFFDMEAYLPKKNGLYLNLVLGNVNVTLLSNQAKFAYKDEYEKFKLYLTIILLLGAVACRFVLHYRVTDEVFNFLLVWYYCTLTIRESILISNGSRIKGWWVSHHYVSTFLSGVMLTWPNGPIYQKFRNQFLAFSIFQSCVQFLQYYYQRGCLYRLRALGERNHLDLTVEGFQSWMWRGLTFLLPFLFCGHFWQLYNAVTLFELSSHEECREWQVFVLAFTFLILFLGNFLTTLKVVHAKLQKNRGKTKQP
UniProt Q9BVK8: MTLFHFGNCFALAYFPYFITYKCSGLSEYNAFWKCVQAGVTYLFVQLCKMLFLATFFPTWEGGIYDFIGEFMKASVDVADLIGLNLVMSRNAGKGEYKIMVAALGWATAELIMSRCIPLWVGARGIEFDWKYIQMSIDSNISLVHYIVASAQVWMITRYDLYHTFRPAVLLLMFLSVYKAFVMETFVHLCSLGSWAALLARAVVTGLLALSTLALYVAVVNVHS
UniProt Q9NR96: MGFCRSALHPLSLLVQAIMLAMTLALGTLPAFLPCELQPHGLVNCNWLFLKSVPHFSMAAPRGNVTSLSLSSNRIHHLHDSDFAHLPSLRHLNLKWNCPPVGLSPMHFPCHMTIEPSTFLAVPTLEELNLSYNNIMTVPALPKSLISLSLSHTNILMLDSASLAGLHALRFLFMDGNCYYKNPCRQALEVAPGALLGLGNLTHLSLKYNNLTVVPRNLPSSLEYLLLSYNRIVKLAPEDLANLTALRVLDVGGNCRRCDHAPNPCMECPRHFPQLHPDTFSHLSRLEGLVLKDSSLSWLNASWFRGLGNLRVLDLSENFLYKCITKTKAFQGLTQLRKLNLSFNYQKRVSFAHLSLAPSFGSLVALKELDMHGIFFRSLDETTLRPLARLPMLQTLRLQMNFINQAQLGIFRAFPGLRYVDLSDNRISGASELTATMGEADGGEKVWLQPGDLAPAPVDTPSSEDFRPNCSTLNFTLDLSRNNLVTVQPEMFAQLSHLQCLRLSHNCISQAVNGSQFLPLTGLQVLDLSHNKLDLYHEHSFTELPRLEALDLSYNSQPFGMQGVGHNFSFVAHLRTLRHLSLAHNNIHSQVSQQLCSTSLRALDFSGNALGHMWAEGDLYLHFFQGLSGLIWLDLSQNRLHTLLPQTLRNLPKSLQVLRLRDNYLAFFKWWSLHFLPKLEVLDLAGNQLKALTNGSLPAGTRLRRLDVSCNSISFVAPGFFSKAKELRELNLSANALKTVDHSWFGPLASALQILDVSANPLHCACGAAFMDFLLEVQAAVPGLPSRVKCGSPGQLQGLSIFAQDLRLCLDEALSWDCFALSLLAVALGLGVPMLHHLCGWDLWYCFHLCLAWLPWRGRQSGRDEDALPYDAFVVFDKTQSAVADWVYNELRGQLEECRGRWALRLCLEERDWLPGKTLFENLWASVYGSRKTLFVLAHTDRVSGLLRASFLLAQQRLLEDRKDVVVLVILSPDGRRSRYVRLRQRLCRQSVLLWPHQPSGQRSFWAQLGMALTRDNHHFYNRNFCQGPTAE
UniProt Q9P0S9: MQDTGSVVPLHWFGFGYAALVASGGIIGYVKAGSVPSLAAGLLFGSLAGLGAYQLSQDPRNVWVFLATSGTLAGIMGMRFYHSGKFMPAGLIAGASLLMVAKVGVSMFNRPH
UniProt Q9BZW5, whole entry, looked up: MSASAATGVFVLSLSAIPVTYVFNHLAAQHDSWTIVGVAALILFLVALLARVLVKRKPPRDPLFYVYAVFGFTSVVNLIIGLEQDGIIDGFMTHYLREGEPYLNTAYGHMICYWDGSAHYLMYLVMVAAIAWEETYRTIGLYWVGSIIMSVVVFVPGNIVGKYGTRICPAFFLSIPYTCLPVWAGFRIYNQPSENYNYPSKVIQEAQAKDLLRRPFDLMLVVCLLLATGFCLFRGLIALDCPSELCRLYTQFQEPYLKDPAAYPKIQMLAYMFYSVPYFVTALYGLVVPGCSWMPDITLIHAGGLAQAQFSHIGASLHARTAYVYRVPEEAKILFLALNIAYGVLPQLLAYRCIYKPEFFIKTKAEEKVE
UniProt Q8IY95: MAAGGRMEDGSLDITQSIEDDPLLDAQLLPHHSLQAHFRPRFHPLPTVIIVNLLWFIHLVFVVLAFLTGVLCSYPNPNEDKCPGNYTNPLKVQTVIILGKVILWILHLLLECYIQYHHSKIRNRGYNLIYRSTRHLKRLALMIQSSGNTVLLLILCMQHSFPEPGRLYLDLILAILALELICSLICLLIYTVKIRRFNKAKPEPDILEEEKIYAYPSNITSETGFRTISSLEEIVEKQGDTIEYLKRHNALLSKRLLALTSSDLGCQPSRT
UniProt Q96HV5: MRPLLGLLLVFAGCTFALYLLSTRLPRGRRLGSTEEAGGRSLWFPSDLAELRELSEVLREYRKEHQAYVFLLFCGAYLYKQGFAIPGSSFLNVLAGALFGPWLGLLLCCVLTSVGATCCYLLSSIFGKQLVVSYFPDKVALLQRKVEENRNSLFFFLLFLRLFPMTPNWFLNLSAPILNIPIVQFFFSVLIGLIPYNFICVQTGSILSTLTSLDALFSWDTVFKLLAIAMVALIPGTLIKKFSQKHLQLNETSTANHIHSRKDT
UniProt Q8N131: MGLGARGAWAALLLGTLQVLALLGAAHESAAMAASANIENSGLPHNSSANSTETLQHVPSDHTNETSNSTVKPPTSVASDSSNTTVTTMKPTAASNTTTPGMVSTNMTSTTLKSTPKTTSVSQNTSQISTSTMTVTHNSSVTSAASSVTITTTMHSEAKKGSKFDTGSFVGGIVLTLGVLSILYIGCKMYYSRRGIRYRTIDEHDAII

The other results are listed elsewhere or left out.

Compound in one assay: C1CCN(C1)C(=O)NC2=CC=CC(=C2)NC3=NC=C(C(=N3)NCCC4=CN=CN4)Br
In words: log2 fold change, soluble protein after heating vs DMSO (PISA); higher = thermal stabilisation; K562 cells, 10 uM, 30 min; active = over 0.2 and 3.5 SD of the protein, either way, in both replicates (recomputed). An outline of the steps: (§1)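 K562 cells (2×10^6 cells/mL) were treated with 10 μM compound for 30 min, and aliquots were heated for 3 min over 48°C-58°C. Pooled aliquots were extracted in PBS with 0.5% NP-40 at 4°C, and the supernatant after 21,000xg for 90 min was measured by TMTpro 16plex LC-MS/MS with channel sums equalised. Reported thermal stability, relative to control samples and from duplicates, is a log2 fold change.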
For TMBIM1 (UniProt Q969X1), the log2 fold change was inactive: 0.172.

Turning to TMEM219 (UniProt Q86XT9), the log2 fold change was inactive: 0.042.

For the target TMEM164 (UniProt Q5U3C3), the log2 fold change is inactive: -0.042.

For TLK2 isoform 2 (UniProt Q86UE8), the log2 fold change is inactive: 0.017.

As for TMED8 (UniProt Q6PL24), the log2 fold change was inactive: -0.039.

For TMEM267 (UniProt Q0VDI3), the log2 fold change was inactive: 0.365.

Consider TMEM181 (UniProt Q9P2C4), for which the log2 fold change was inactive: -0.016.

In the case of TMEM106B (UniProt Q9NUM4), the log2 fold change is inactive: -0.064.

TMEM9 (UniProt Q9P0T7): the log2 fold change is inactive: -0.053.

Consider TMED3 (UniProt Q9Y3Q3), for which the log2 fold change was inactive: -0.02.

As to TMEM189-UBE2V1 (UniProt I3L0A0), the log2 fold change is inactive: 0.02.

Turning to TMEM101 (UniProt Q96IK0), the log2 fold change was inactive: 0.014.

Consider TMUB1 (UniProt Q9BVT8), for which the log2 fold change is inactive: -0.025.

Compound in another assay: C1CN(CCC1(CC2=CC=C(C=C2)Cl)N)C3=NC=NC4=C3C=CN4
The assay is described as above. An outline of the steps:
as §1
Consider TMEM69 (UniProt Q5SWH9), for which the log2 fold change is inactive: 0.081.

Take TMEM177 (UniProt Q53S58): the log2 fold change is inactive: 0.132.

Regarding TMEM141 (UniProt Q96I45), the log2 fold change was inactive: 0.033.

With TMEM63A (UniProt O94886), the log2 fold change is inactive: 0.059.

For the target TMEM120B (UniProt A0PK00), the log2 fold change is inactive: 0.116.

With TMEM147 (UniProt Q9BVK8), the log2 fold change is inactive: 0.157.

Turning to TMC1 (UniProt Q8TDI8), the log2 fold change was inactive: 0.031.

With TLR9 isoform 4 (UniProt Q9NR96), the log2 fold change was inactive: -0.138.

Take TMEM223 (UniProt A0PJW6): the log2 fold change was inactive: -0.038.

Regarding TMEM242 (UniProt Q9NWH2), the log2 fold change was inactive: -0.025.

TNFRSF10A (UniProt O00220): the log2 fold change is inactive: -0.049.

Turning to TMEM9B (UniProt Q9NQ34), the log2 fold change is inactive: 0.042.

For TMEM268 isoform 3 (UniProt Q5VZI3), the log2 fold change is inactive: 0.045.

Turning to TMEM87B (UniProt Q96K49), the log2 fold change is inactive: 0.047.

As to TMEM161B (UniProt Q8NDZ6), the log2 fold change is inactive: -0.03.

Turning to TMEM14C (UniProt Q9P0S9), the log2 fold change was inactive: 0.024.

TM6SF1 (UniProt Q9BZW5): the log2 fold change is inactive: 0.048.

For the target TNFRSF10B (UniProt O14763), the log2 fold change was inactive: 0.156.

Turning to TM7SF3 (UniProt Q9NS93), the log2 fold change was inactive: 0.123.

Turning to TMC6 (UniProt Q7Z403), the log2 fold change is inactive: -0.054.

Consider TMEM192 (UniProt Q8IY95), for which the log2 fold change is inactive: 0.038.

Turning to TMEM41A (UniProt Q96HV5), the log2 fold change was inactive: 0.033.

Turning to TMEM123 (UniProt Q8N131), the log2 fold change is inactive: 0.042.

Take TMBIM1 (UniProt Q969X1): the log2 fold change was inactive: 0.049.

In the case of TMEM219 (UniProt Q86XT9), the log2 fold change was inactive: 0.016.

For TMEM164 (UniProt Q5U3C3), the log2 fold change was inactive: 0.021.

Turning to TLK2 isoform 2 (UniProt Q86UE8), the log2 fold change was inactive: -0.048.

In the case of TMED8 (UniProt Q6PL24), the log2 fold change was inactive: 0.002.

For the target TMEM267 (UniProt Q0VDI3), the log2 fold change was inactive: -0.217.

As for TMEM181 (UniProt Q9P2C4), the log2 fold change is inactive: 0.111.

For TMEM106B (UniProt Q9NUM4), the log2 fold change is inactive: 0.15.

Consider TMEM9 (UniProt Q9P0T7), for which the log2 fold change was inactive: -0.025.

For the target TMED3 (UniProt Q9Y3Q3), the log2 fold change is inactive: 0.007.

Turning to TMEM189-UBE2V1 (UniProt I3L0A0), the log2 fold change is inactive: 0.058.

Take TMEM101 (UniProt Q96IK0): the log2 fold change is inactive: 0.085.

Consider TMUB1 (UniProt Q9BVT8), for which the log2 fold change is inactive: 0.055.

Compound in the next assay: C1COCCN1CCN2C3=CC=CC=C3N=C2NC(=O)C4=CC(=CC=C4)[N+](=O)[O-] [IRAK-1-4 Inhibitor I]
The description is as above. In short, it runs like this:
as §1
Regarding TMEM134 (UniProt Q9H6X4), the log2 fold change was inactive: -0.003.

Turning to TMEM69 (UniProt Q5SWH9), the log2 fold change was inactive: 0.037.

As to TMEM177 (UniProt Q53S58), the log2 fold change was inactive: 0.06.

For TMEM141 (UniProt Q96I45), the log2 fold change is inactive: 0.036.

Regarding TMEM63A (UniProt O94886), the log2 fold change is inactive: -0.048.

TMEM120B (UniProt A0PK00): the log2 fold change is inactive: 0.025.

TMC1 (UniProt Q8TDI8): the log2 fold change is inactive: -0.086.

Take TMEM223 (UniProt A0PJW6): the log2 fold change is inactive: 0.039.

On to TNFRSF10A (UniProt O00220), for which the log2 fold change is inactive: 0.002.

As to TMEM9B (UniProt Q9NQ34), the log2 fold change is inactive: -0.019.

With TMEM87B (UniProt Q96K49), the log2 fold change is inactive: 0.139.

On to TMEM161B (UniProt Q8NDZ6), for which the log2 fold change is inactive: 0.06.

TMEM14C (UniProt Q9P0S9): the log2 fold change is inactive: 0.041.

For TM6SF1 (UniProt Q9BZW5), the log2 fold change was inactive: 0.069.

Regarding TMEM104 (UniProt Q8NE00), the log2 fold change was inactive: -0.039.

Turning to TNFAIP3 (UniProt P21580), the log2 fold change is inactive: 0.055.

With TNFRSF10B (UniProt O14763), the log2 fold change is inactive: 0.022.

On to TM7SF3 (UniProt Q9NS93), for which the log2 fold change is inactive: -0.06.

Consider TMC6 (UniProt Q7Z403), for which the log2 fold change is inactive: -0.194.

TMEM192 (UniProt Q8IY95): the log2 fold change is inactive: 0.047.

On to TMEM41A (UniProt Q96HV5), for which the log2 fold change was inactive: -0.022.

Turning to TMEM164 (UniProt Q5U3C3), the log2 fold change was inactive: 0.057.

Take TLK2 isoform 2 (UniProt Q86UE8): the log2 fold change is inactive: 0.035.

Take TMED8 (UniProt Q6PL24): the log2 fold change was inactive: -0.103.

As to TMEM267 (UniProt Q0VDI3), the log2 fold change is inactive: -0.082.

In the case of TMEM181 (UniProt Q9P2C4), the log2 fold change was inactive: -0.106.

For the target TMEM106B (UniProt Q9NUM4), the log2 fold change is inactive: 0.056.

Consider TMEM9 (UniProt Q9P0T7), for which the log2 fold change is inactive: 0.076.

Take TMED3 (UniProt Q9Y3Q3): the log2 fold change is inactive: 0.02.

As for TMEM189-UBE2V1 (UniProt I3L0A0), the log2 fold change is inactive: 0.048.

Take TMEM101 (UniProt Q96IK0): the log2 fold change is inactive: -0.001.
